Drawing on article PMC11021197, this text covers binding for one molecule.

These are yes or no findings as the source states them, for the method shown. In cells and extracts the contact can be indirect. Some binding calls cover weakened binding; strength is not graded here. Tags and fused reporters may be left off the sequences shown.

For this assay, the target named is T1, FBXW8–FLAG (human FBXW8, FLAG-tagged) (human) (UniProt Q8N3Y1).
T1 sequence: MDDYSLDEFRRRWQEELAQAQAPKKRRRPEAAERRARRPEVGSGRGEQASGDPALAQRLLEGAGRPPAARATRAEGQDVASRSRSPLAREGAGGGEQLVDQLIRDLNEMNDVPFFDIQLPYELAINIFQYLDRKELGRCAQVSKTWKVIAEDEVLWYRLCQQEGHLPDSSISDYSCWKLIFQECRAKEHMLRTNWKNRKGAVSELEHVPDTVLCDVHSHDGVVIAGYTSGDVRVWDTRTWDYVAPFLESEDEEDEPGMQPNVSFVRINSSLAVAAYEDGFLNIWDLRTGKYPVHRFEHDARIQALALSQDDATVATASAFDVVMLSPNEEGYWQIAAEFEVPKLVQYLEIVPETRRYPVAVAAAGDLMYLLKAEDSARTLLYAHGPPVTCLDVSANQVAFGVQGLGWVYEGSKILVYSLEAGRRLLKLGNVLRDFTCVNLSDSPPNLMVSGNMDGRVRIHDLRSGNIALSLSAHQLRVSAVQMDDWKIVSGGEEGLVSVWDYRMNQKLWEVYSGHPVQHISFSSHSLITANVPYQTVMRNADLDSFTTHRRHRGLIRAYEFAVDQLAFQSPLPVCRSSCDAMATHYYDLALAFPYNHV
Briefly: co-IP; anti-FLAG beads added to HEK293T whole-cell extract 48 h after expressing ATGL–FLAG or FBXW8–FLAG; RIPA buffer (50 mM Tris–HCl pH 7.4, 150 mM NaCl, 2 mM EDTA, 1.0% Triton X-100); overnight at 4 °C; six washes; immunoblot. On the technique in general: A western blot detects proteins with antibodies after separation by electrophoresis.

B1: ATGL found with FBXW8–FLAG in HEK293T whole-cell extract (enzyme, UniProt Q96AD5 1-504)
chain: MFPREKTWNISFAGCGFLGVYYVGVASCLREHAPFLVANATHIYGASAGALTATALVTGVCLGEAGAKFIEVSKEARKRFLGPLHPSFNLVKIIRSFLLKVLPADSHEHASGRLGISLTRVSDGENVIISHFNSKDELIQANVCSGFIPVYCGLIPPSLQGVRYVDGGISDNLPLYELKNTITVSPFSGESDICPQDSSTNIHELRVTNTSIQFNLRNLYRLSKALFPPEPLVLREMCKQGYRDGLRFLQRNGLLNRPNPLLALPPARPHGPEDKDQAVESAQAEDYSQLPGEDHILEHLPARLNEALLEACVEPTDLLTTLSNMLPVRLATAMMVPYTLPLESALSFTIRLLEWLPDVPEDIRWMKEQTGSICQYLVMRAKRKLGRHLPSRLPEQVELRRVQSLPSVPLSCAAYREALPGWMRNNLSLGDALAKWEECQRQLLLGLFCTNVAFPPEALRMRAPADPAPAPADPASPQHQLAGPAPLLSTPAPEARPVIGALGL
In the case of B1, the binding entry was “binds”.
